# Measured values taken from the supplement of paper PMC4604168 (melanoma cell lines).
# This is one part of the list. Repeats are few or missing, and single values can be far off.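 Imaging used 1,536-well plates; nuclei positive for cleaved PARP by antibody were divided by total DNA-stained nuclei to yield the apoptosis fraction. Doses for screening kept most cells viable, and cell lines differ markedly in resting and induced cleaved-PARP levels.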
# Columns and labels:
# Test in all cases: cleaved PARP positive nuclei fraction relative to DMSO control; melanoma cells; higher = more apoptosis
# Settings in all cases: library dose: low library concentration; 72 h
# MZ2-MEL = test system: MZ2-MEL
# MeWo = test system: MeWo
# RPMI7951 = test system: RPMI7951
# RVH-421 = test system: RVH-421
# SkMel28 = test system: SkMel28
# SkMel2 = test system: SkMel2
# SkMel30 = test system: SkMel30
# SkMel5 = test system: SkMel5
# UACC257 = test system: UACC257
# UACC62 = test system: UACC62
# WM115 = test system: WM115
# WM1716 = test system: WM1716
# WM1745 = test system: WM1745
# WM3526 = test system: WM3526
# WM3619 = test system: WM3619
# WM451Lu = test system: WM451Lu
SMILES,cleaved PARP positive nuclei fraction (MZ2-MEL),cleaved PARP positive nuclei fraction (MeWo),cleaved PARP positive nuclei fraction (RPMI7951),cleaved PARP positive nuclei fraction (RVH-421),cleaved PARP positive nuclei fraction (SkMel28),cleaved PARP positive nuclei fraction (SkMel2),cleaved PARP positive nuclei fraction (SkMel30),cleaved PARP positive nuclei fraction (SkMel5),cleaved PARP positive nuclei fraction (UACC257),cleaved PARP positive nuclei fraction (UACC62),cleaved PARP positive nuclei fraction (WM115),cleaved PARP positive nuclei fraction (WM1716),cleaved PARP positive nuclei fraction (WM1745),cleaved PARP positive nuclei fraction (WM3526),cleaved PARP positive nuclei fraction (WM3619),cleaved PARP positive nuclei fraction (WM451Lu)
"C[As](C)SC[C@H](NC(=O)CC[C@H](N)C(=O)O)C(=O)NCC(=O)O [Darinaparsin] + O=C(Nc1cccc(Cl)c1)Nc1ncc(CCNc2ncnc3ccsc23)s1 [SNS314] (first compound 0.4 µM, partner dose 0.0008 µM)",73.3%,478%,51.6%,47.4%,88.9%,84.9%,89.2%,45.5%,75.8%,150%,268%,18.7%,79.4%,114%,92.1%,32.6%
"N.N.[Cl][Pt][Cl] [cisplatin] + O=S(=O)(c1ccccc1)N(CC(F)(F)F)c1ccc(C(O)(C(F)(F)F)C(F)(F)F)cc1 [T0901317] (first compound 1.6 µM, partner dose 1.4 µM)",82.5%,25.1%,58.1%,143%,49.9%,60.1%,73.6%,162%,49.2%,47.9%,77.1%,7.54%,186%,39.3%,92.2%,39.8%
"OCc1c[nH]c2ccccc12 [Indole-3-carbinol] + Cc1cc(SCc2sc(-c3ccc(C(F)(F)F)c(F)c3)nc2C)ccc1OCC(=O)O [GW0742] (first compound 0.8 µM, partner dose 2 µM)",151%,29.2%,295%,131%,179%,88.4%,131%,64.5%,81.1%,117%,116%,83.1%,90.8%,33%,93.5%,58.9%
"C[C@@H](N)c1ccc(C(=O)Nc2ccnc3[nH]ccc23)cc1 + C/C(O)=C(\C#N)C(=O)Nc1cc(Br)ccc1Br [LFM-A13] (first compound 0.4 µM, partner dose 2 µM)",138%,90.6%,181%,85.2%,85.3%,92.8%,41.4%,202%,54.5%,86.6%,70.8%,92.2%,99.8%,66.8%,85.9%,158%
"N.N.[Cl][Pt][Cl] [cisplatin] + O=c1cc(-c2cccc3c2Sc2ccccc2S3)oc(N2CCOCC2)c1 [KU55933] (first compound 1.6 µM, partner dose 1 µM)",151%,82.6%,197%,138%,135%,29.9%,24%,75.2%,70.9%,32.3%,118%,45.2%,79.9%,71.5%,89.7%,142%
"N.N.[Cl][Pt][Cl] [cisplatin] + CC1(C)NC(=O)N(c2ccc([N+](=O)[O-])c(C(F)(F)F)c2)C1=O [nilutamide] (first compound 1.6 µM, partner dose 1 µM)",116%,151%,256%,118%,40%,74.2%,70.2%,63.9%,31%,25.9%,90%,69.4%,71.4%,123%,81.3%,59.9%
"CS(=O)(=O)c1ccc(C(=O)Nc2ccc(Cl)c(-c3ccccn3)c2)c(Cl)c1 [vismodegib] + C/C(O)=C(\C#N)C(=O)Nc1cc(Br)ccc1Br [LFM-A13] (first compound 1 µM, partner dose 2 µM)",91.5%,60.4%,41.3%,79.8%,87.8%,96.2%,60.2%,33.6%,163%,108%,125%,58.6%,81.1%,85.5%,9.58%,134%
"CS(=O)(=O)CCNCc1ccc(-c2ccc3ncnc(Nc4ccc(OCc5cccc(F)c5)c(Cl)c4)c3c2)o1 [lapatinib] + O=C(Oc1ccc([N+](=O)[O-])cc1)N1CCC(C(O)(c2ccc3c(c2)OCO3)c2ccc3c(c2)OCO3)CC1 [JZL184] (first compound 0.8 µM, partner dose 1 µM)",105%,120%,78.4%,27%,66.9%,64.2%,48.2%,77.1%,89%,44.1%,47%,182%,95.7%,68.5%,108%,61.4%
"Cn1cc(C2=C(c3cn(C4CCN(Cc5ccccn5)CC4)c4ccccc34)C(=O)NC2=O)c2ccccc21 [Enzastaurin] + COc1cc(Nc2ncc(F)c(Nc3ccc4c(n3)NC(=O)C(C)(C)O4)n2)cc(OC)c1OC [Tamatinib] (first compound 0.8 µM, partner dose 0.4 µM)",93.2%,76.3%,378%,32.1%,126%,277%,72.1%,153%,123%,151%,133%,152%,119%,59.5%,117%,151%
"N.N.[Cl][Pt][Cl] [cisplatin] + COC(=O)c1sccc1S(=O)(=O)Nc1ccc(Nc2ccccc2)cc1OC [GSK0660] (first compound 1.6 µM, partner dose 1 µM)",89.4%,79.1%,139%,63.8%,89.6%,83.1%,37.3%,149%,239%,98.5%,94%,92%,85.7%,58.2%,139%,30.3%
"Cn1cc(C2=C(c3cn(C4CCN(Cc5ccccn5)CC4)c4ccccc34)C(=O)NC2=O)c2ccccc21 [Enzastaurin] + COc1cc2ncnc(Nc3ccc(Oc4ccccc4)cc3)c2cc1OC [SrcI1] (first compound 0.8 µM, partner dose 2 µM)",70.8%,36.9%,30.8%,28.8%,213%,78.3%,70.5%,67.7%,158%,97.2%,94.1%,164%,97.5%,67.7%,112%,117%
"C=CCNC1=C2C[C@@H](C)C[C@H](OC)[C@H](O)[C@@H](C)/C=C(\C)[C@H](OC(N)=O)[C@@H](OC)/C=C\C=C(/C)C(=O)NC(=CC1=O)C2=O [Tanespimycin] + O=C(Oc1ccc([N+](=O)[O-])cc1)N1CCC(C(O)(c2ccc3c(c2)OCO3)c2ccc3c(c2)OCO3)CC1 [JZL184] (first compound 0.002 µM, partner dose 1 µM)",133%,43%,94.6%,30.8%,129%,41.3%,24.4%,79.2%,101%,181%,57.5%,106%,95.4%,82.8%,97.8%,68%
"Nc1nc(F)nc2c1ncn2[C@@H]1O[C@H](CO)[C@@H](O)[C@@H]1O [fludarabine] + O=C(Oc1ccc([N+](=O)[O-])cc1)N1CCC(C(O)(c2ccc3c(c2)OCO3)c2ccc3c(c2)OCO3)CC1 [JZL184] (first compound 0.2 µM, partner dose 1 µM)",206%,441%,107%,181%,126%,843%,265%,136%,179%,124%,69.7%,98.7%,174%,1550%,98.8%,338%
"C=C(c1ccc(C(=O)O)cc1)c1cc2c(cc1C)C(C)(C)CCC2(C)C [Bexarotene] + C/C(O)=C(\C#N)C(=O)Nc1cc(Br)ccc1Br [LFM-A13] (first compound 2 µM, partner dose 2 µM)",97.5%,91.5%,41.6%,78.9%,252%,97.6%,83.5%,83%,87.3%,130%,139%,128%,92.9%,109%,105%,125%
"COc1cc([C@@H]2c3cc4c(cc3[C@@H](O[C@@H]3O[C@@H]5CO[C@@H](C)O[C@H]5[C@H](O)[C@H]3O)[C@H]3COC(=O)[C@H]23)OCO4)cc(OC)c1O [etoposide] + O=C(Oc1ccc([N+](=O)[O-])cc1)N1CCC(C(O)(c2ccc3c(c2)OCO3)c2ccc3c(c2)OCO3)CC1 [JZL184] (first compound 0.02 µM, partner dose 1 µM)",184%,121%,36%,44.1%,174%,90.1%,34.6%,84.2%,55%,96.8%,140%,110%,94.3%,157%,108%,34.7%
"CNC(=O)c1cc(Oc2ccc(NC(=O)Nc3ccc(Cl)c(C(F)(F)F)c3)cc2)ccn1 [sorafenib] + O=C(Oc1ccc([N+](=O)[O-])cc1)N1CCC(C(O)(c2ccc3c(c2)OCO3)c2ccc3c(c2)OCO3)CC1 [JZL184] (first compound 0.4 µM, partner dose 1 µM)",81.5%,54.3%,37.5%,197%,130%,54.8%,115%,90.9%,113%,99.3%,107%,45.1%,89.5%,41.5%,75.3%,56.2%
"N#CC[C@H](C1CCCC1)n1cc(-c2ncnc3[nH]ccc23)cn1 [ruxolitinib] + Cc1cc(SCc2sc(-c3ccc(C(F)(F)F)c(F)c3)nc2C)ccc1OCC(=O)O [GW0742] (first compound 1 µM, partner dose 2 µM)",211%,72.3%,34%,26%,104%,92.6%,68.9%,71.9%,170%,95.4%,67.1%,425%,86.8%,41%,101%,64.3%
"N#CC[C@H](C1CCCC1)n1cc(-c2ncnc3[nH]ccc23)cn1 [ruxolitinib] + C/C(O)=C(\C#N)C(=O)Nc1cc(Br)ccc1Br [LFM-A13] (first compound 1 µM, partner dose 2 µM)",268%,22.2%,286%,34.4%,139%,190%,30.6%,136%,177%,28.4%,194%,108%,93.3%,338%,218%,32.7%
"Cc1cc(Nc2cc(N3CCN(C)CC3)nc(/C=C/c3ccccc3)n2)n[nH]1 + O=C(Oc1ccc([N+](=O)[O-])cc1)N1CCC(C(O)(c2ccc3c(c2)OCO3)c2ccc3c(c2)OCO3)CC1 [JZL184] (first compound 0.04 µM, partner dose 1 µM)",91.8%,78.2%,203%,194%,185%,43.6%,81.3%,107%,26.6%,213%,284%,384%,104%,35.7%,1700%,93.8%

# Part of the list above, reduced to cleaved PARP positive nuclei fraction (WM1716):
SMILES	cleaved PARP positive nuclei fraction (WM1716)
C=CCNC1=C2C[C@@H](C)C[C@H](OC)[C@H](O)[C@@H](C)/C=C(\C)[C@H](OC(N)=O)[C@@H](OC)/C=C\C=C(/C)C(=O)NC(=CC1=O)C2=O [Tanespimycin] + O=C(Oc1ccc([N+](=O)[O-])cc1)N1CCC(C(O)(c2ccc3c(c2)OCO3)c2ccc3c(c2)OCO3)CC1 [JZL184] (first compound 0.002 µM, partner dose 1 µM)	106%
COc1cc([C@@H]2c3cc4c(cc3[C@@H](O[C@@H]3O[C@@H]5CO[C@@H](C)O[C@H]5[C@H](O)[C@H]3O)[C@H]3COC(=O)[C@H]23)OCO4)cc(OC)c1O [etoposide] + O=C(Oc1ccc([N+](=O)[O-])cc1)N1CCC(C(O)(c2ccc3c(c2)OCO3)c2ccc3c(c2)OCO3)CC1 [JZL184] (first compound 0.02 µM, partner dose 1 µM)	110%
